Results: paper PMC12478189, “Structurally diverse viral inhibitors converge on a shared mechanism to stall the antigen transporter TAP” (Proceedings of the National Academy of Sciences of the …, 2025)
Results are given in words; binding and its absence hold for the method and conditions named. A result given as binding can be weak or reduced; the word gives no strength.

Amino acid sequences for entries named in this document (tags omitted). Residues count along the entry.
UniProt P14334, residues 20-183: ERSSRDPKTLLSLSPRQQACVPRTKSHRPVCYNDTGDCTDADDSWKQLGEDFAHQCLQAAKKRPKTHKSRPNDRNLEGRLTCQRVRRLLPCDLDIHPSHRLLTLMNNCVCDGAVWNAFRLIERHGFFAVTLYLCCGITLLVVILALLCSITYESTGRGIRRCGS

Molecular target: TAP1 with a C-terminal SpyCatcher (human) (UniProt Q03518)
Assay: cryo-EM structure; both purified

hUS6 (human cytomegalovirus US6) fused to SpyTag (from UniProt P14334 20-183)
binding: binds
